# The list shows a part of the results. The data scatter; read single values as rough.
# The chains behind the UniProt entries cited, without tags or fusion partners. Where a name states a change or a piece, a line headed by the entry shows the natural chain unless it says otherwise.
# UniProt Q9UG01, whole entry, looked up: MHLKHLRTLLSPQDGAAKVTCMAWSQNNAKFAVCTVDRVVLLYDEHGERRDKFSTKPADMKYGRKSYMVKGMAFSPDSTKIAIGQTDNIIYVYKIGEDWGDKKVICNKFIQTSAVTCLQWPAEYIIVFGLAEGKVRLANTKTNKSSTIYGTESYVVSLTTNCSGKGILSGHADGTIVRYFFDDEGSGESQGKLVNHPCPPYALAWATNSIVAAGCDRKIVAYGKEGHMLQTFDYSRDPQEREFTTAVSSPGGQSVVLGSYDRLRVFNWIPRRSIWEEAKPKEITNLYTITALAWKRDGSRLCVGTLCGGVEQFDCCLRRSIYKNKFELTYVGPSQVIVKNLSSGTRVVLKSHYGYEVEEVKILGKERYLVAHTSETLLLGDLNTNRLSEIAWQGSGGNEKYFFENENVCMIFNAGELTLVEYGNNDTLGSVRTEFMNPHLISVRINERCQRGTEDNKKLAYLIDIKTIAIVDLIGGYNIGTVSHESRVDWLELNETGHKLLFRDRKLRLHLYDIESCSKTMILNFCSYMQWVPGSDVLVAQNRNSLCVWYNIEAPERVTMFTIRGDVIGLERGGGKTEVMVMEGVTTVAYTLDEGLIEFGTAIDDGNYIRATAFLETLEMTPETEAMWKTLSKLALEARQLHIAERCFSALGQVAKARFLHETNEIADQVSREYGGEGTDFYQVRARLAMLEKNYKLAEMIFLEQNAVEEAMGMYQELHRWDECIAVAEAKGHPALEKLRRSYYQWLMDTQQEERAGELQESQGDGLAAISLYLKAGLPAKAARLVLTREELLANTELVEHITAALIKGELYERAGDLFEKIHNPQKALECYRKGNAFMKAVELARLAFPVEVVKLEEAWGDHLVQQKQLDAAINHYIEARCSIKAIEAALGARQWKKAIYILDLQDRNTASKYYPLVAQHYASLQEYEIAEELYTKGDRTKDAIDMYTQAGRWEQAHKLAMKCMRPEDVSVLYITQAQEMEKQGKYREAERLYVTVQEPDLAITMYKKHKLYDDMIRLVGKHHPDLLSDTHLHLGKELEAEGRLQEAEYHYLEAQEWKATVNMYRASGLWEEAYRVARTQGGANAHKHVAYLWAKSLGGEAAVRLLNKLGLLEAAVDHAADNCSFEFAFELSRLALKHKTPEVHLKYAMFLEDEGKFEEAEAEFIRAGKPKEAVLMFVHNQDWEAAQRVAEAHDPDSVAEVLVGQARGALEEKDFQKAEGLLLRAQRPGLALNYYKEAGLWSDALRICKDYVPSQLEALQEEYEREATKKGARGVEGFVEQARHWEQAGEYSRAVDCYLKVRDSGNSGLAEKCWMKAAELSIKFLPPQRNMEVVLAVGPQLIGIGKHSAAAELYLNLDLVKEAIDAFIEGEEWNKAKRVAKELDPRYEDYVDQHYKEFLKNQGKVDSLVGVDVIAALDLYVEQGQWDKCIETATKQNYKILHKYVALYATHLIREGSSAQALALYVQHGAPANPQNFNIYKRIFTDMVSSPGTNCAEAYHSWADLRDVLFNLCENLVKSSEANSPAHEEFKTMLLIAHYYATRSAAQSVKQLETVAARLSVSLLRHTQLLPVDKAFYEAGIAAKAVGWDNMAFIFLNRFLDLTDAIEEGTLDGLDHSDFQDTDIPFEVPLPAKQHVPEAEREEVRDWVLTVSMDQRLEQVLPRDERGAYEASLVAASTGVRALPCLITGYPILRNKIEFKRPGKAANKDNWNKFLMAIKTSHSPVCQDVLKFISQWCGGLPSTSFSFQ
# UniProt Q9UI26: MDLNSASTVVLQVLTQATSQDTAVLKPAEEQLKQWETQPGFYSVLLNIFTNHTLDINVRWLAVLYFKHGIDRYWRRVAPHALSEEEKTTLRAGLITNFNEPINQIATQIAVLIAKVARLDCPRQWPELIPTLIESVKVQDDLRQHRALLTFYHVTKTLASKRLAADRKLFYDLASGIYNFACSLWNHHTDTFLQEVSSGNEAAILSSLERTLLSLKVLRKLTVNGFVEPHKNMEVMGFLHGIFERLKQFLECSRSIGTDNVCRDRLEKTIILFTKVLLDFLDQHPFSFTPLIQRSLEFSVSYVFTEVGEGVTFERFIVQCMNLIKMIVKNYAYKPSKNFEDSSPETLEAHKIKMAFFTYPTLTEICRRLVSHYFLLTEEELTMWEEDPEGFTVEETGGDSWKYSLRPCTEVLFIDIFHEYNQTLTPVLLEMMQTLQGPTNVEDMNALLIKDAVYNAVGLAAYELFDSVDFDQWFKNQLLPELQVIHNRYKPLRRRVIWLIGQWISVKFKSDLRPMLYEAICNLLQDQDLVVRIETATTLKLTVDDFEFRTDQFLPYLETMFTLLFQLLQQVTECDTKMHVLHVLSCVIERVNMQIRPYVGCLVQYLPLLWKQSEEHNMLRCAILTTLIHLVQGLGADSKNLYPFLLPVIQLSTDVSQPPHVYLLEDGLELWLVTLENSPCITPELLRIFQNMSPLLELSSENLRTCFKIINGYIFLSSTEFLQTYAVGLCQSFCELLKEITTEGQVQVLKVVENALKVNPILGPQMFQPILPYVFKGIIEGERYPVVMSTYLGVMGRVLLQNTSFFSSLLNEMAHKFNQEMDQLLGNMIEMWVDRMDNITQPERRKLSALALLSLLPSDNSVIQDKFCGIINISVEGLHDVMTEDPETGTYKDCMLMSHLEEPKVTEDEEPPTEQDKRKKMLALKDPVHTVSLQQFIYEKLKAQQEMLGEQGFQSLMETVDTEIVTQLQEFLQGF
# UniProt Q9UPZ3: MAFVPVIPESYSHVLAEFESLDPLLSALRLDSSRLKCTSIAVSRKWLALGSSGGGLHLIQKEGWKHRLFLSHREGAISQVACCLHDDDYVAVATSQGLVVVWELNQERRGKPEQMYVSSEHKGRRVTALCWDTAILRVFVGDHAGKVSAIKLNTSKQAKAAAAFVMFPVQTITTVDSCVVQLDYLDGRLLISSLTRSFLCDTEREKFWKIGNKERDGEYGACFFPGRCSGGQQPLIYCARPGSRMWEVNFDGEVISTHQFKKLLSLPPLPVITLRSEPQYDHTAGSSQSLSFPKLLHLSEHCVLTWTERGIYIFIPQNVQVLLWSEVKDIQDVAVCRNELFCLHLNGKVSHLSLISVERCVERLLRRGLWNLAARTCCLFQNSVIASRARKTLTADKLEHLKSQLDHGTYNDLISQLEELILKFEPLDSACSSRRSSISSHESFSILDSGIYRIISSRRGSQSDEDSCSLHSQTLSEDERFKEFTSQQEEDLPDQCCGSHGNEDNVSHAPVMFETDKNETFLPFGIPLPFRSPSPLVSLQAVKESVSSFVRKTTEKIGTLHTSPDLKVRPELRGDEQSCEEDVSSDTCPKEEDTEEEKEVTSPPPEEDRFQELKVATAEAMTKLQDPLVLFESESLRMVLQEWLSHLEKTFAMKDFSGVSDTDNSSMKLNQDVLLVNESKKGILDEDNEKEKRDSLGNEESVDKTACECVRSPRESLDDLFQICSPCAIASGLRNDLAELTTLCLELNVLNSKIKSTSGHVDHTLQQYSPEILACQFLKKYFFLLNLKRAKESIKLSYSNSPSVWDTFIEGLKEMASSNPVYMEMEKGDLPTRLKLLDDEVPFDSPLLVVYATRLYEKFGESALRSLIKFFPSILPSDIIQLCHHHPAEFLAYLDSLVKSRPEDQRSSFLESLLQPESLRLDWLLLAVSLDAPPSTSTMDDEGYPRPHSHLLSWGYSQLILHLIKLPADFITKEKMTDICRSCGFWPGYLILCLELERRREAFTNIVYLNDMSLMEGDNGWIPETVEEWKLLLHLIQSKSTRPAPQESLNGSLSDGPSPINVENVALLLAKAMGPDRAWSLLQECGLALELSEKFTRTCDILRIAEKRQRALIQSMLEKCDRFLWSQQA
# UniProt P48735: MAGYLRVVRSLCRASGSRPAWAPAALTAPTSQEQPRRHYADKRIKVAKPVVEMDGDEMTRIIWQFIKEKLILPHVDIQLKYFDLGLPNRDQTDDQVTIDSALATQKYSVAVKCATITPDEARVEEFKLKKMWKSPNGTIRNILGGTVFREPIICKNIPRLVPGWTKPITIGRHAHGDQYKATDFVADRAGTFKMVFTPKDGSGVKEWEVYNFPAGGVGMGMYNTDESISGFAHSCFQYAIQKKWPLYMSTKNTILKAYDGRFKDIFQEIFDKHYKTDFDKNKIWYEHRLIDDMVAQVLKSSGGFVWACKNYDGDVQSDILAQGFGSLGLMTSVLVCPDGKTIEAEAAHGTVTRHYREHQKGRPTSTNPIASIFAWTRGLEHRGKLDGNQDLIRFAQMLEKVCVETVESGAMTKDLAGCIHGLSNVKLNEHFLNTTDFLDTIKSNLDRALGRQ
# UniProt Q9H0H0: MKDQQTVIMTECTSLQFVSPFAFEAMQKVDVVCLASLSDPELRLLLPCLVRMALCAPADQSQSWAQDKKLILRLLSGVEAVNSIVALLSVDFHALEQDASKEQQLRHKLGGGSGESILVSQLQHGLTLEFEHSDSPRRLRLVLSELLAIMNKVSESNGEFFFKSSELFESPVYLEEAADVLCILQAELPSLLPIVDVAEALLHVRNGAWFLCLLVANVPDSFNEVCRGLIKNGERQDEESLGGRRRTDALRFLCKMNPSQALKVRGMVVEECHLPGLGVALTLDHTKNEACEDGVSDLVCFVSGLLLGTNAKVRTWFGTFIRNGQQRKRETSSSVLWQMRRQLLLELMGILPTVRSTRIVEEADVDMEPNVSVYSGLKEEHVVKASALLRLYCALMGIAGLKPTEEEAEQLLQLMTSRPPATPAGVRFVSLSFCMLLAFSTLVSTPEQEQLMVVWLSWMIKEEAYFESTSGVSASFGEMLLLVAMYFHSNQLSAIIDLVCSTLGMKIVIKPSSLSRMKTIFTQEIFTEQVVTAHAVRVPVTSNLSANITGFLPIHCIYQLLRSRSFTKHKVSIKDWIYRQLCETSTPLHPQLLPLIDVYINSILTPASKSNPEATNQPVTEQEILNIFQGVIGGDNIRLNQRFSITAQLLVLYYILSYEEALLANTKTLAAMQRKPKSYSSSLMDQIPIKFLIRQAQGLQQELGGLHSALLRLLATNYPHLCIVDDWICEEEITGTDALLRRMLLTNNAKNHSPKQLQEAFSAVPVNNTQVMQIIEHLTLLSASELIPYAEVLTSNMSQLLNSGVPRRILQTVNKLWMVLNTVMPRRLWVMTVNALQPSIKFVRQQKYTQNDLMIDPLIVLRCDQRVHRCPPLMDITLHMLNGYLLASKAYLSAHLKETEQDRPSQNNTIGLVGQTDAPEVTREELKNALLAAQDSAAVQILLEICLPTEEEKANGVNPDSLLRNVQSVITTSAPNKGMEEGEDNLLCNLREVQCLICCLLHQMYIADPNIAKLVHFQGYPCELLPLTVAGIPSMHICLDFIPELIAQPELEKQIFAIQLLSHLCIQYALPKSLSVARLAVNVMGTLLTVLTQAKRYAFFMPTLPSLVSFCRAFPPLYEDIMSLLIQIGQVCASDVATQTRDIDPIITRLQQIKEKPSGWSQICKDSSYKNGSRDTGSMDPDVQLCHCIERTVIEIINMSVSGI
# UniProt O95373, whole entry, looked up: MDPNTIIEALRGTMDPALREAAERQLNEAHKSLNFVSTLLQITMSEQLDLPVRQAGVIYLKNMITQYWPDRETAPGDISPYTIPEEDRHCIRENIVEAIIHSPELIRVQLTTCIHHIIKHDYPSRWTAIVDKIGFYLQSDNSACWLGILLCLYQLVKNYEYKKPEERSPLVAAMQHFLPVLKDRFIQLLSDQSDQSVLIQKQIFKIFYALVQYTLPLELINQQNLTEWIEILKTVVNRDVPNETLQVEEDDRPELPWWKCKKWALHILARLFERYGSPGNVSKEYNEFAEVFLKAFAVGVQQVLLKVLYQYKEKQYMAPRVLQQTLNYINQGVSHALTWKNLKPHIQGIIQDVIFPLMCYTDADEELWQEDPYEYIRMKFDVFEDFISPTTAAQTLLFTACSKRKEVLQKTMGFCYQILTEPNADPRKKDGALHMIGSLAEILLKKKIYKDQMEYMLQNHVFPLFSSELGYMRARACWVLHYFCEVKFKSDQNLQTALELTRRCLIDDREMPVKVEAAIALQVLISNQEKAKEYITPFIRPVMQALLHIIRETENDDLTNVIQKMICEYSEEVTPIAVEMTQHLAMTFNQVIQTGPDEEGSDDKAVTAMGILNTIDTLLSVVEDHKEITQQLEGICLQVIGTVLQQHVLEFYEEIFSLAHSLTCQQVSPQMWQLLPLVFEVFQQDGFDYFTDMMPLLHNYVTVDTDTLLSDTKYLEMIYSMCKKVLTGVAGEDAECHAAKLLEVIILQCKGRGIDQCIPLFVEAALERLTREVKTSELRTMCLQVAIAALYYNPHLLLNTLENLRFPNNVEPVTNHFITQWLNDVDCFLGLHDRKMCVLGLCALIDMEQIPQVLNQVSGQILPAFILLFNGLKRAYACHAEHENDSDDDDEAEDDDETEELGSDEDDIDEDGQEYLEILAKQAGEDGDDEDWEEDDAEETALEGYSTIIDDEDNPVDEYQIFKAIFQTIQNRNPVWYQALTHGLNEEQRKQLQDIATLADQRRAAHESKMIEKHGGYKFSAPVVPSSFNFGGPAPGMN
# Compound: ClCC(=O)N[C@H]1CCCc2ccccc12
# Assay: log2 mean competition ratio of IA-DTB cysteine labelling (DMSO/compound) (log2 ratio); higher = stronger cysteine engagement by compound
# Conditions: 50 µM; treatment time: 4 h; cell line lysate: HEK293T
# Description: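 IA-DTB competitive cysteine chemoproteomics in HEK293T RIPA lysate. Lysates were treated with compound 29 or 30 at 50 or 200 µM for 4 h, then IA-DTB (500 µM, 1 h), trypsin-digested, NeutrAvidin-enriched and analysed by diaPASEF. Competition ratio = intensity DMSO / intensity compound (n=4 treated, n=64 DMSO); binding: mean log2 CR ≥ 1 and p ≤ 0.05 plus QC filters. Target is the cysteine site.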
row,Target,log2 mean competition ratio
1,HPS4 C183 (UniProt Q9NQG7),-0.0477
2,HSPD1 C447 (UniProt P10809),0.15
3,IGF2BP3 C194 (UniProt O00425),-0.146
4,IFT172 C1298 (UniProt Q9UG01),0.573
5,HYOU1 C352,-0.102
6,IPO11 C262 (UniProt Q9UI26),0.176
7,HUWE1 C1832,-0.364
8,HTRA2 C71 (UniProt O43464),-0.226
9,INTS9 C578 (UniProt Q9NV88),0.199
10,IFT172 C1727 (UniProt Q9UG01),-0.267
11,IARS2 C1005 (UniProt Q9NSE4),0.437
12,HUWE1 C790,0.164
13,INTS1 C1440 (UniProt Q8N201),0.288
14,HPS5 C222 (UniProt Q9UPZ3),0.0562
15,IDH2 C418 (UniProt P48735),-0.216
16,IFRD2 C409 (UniProt Q12894),-0.237
17,INTS2 C988 (UniProt Q9H0H0),-0.243
18,IKBKG C347 (UniProt Q9Y6K9),0.27
19,HSPA4L C540 (UniProt O95757),0.173
20,IPO7 C749 (UniProt O95373),0.844

# Same assay, conditions: 200 µM; treatment time: 4 h; cell line lysate: HEK293T
row,Target,log2 mean competition ratio
1,HPS4 C183 (UniProt Q9NQG7),0.136
2,HSPD1 C447 (UniProt P10809),-0.0943
3,IGF2BP3 C194 (UniProt O00425),0.505
4,IFT172 C1298 (UniProt Q9UG01),0.0181
5,HYOU1 C352,-0.129
6,IPO11 C262 (UniProt Q9UI26),0.321
7,HUWE1 C1832,0.184
8,HTRA2 C71 (UniProt O43464),-0.179
9,INTS9 C578 (UniProt Q9NV88),0.489
10,IFT172 C1727 (UniProt Q9UG01),0.0584
11,IARS2 C1005 (UniProt Q9NSE4),0.225
12,HUWE1 C790,-0.0916
13,INTS1 C1440 (UniProt Q8N201),0.107
14,HPS5 C222 (UniProt Q9UPZ3),0.374
15,IDH2 C418 (UniProt P48735),-0.171
16,IFRD2 C409 (UniProt Q12894),-0.185
17,INTS2 C988 (UniProt Q9H0H0),0.145
18,IKBKG C347 (UniProt Q9Y6K9),0.294
19,HSPA4L C540 (UniProt O95757),-0.32
20,IPO7 C749 (UniProt O95373),0.0801

# Source: the supplement of paper PMC11732987, “Enantioselective OTUD7B fragment discovery through chemoproteomics screening and high-throughput optimisation” (Communications Chemistry, 2025)
